Data on one substance can be found in article PMC6466687.

The chains behind the UniProt entries cited, without tags or fusion partners.
UniProt Q13620: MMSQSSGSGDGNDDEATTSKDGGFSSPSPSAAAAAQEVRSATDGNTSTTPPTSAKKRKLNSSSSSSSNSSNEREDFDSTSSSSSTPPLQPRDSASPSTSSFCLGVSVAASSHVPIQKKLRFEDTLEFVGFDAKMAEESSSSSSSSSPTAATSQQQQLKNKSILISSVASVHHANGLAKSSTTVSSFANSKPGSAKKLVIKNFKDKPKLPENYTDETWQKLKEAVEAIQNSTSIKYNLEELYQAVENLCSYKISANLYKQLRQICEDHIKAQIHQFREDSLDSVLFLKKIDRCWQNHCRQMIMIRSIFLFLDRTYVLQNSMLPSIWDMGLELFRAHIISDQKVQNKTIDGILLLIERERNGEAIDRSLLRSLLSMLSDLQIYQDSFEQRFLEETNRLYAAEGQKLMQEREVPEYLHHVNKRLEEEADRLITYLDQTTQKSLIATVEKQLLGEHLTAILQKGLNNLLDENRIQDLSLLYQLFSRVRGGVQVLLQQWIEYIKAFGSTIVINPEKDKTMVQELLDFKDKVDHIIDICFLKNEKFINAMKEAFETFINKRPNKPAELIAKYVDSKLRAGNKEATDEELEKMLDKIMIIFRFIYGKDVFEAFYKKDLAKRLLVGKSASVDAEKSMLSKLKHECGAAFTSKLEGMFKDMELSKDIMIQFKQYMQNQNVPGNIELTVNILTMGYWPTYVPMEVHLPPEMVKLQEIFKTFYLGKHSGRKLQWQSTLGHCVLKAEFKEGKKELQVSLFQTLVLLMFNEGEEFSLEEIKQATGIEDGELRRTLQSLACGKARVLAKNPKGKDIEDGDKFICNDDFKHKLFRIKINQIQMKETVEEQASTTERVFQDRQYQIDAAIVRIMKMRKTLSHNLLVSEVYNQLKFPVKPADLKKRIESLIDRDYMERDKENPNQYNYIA
UniProt P51449: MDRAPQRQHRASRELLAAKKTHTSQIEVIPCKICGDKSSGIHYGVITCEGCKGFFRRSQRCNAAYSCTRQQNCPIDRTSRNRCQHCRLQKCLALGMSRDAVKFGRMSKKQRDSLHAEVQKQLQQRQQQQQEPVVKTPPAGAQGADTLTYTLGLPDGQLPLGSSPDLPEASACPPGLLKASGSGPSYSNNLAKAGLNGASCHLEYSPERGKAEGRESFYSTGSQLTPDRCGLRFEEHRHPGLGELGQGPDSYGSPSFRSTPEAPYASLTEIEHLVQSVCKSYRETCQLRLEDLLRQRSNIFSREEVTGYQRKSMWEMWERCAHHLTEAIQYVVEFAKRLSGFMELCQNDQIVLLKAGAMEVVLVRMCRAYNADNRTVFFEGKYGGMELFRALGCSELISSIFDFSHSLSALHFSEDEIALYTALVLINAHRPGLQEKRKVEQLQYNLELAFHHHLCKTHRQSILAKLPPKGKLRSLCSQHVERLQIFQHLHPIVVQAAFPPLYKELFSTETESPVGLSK

These are yes or no findings as the source states them, for the method shown. Binding seen in cells or lysates may run through a third protein. Some entries that bind do so weakly or less than the wild type.

This experiment deals with CUL4B (human (endogenous in NT2)) (UniProt Q13620). The experiment in a line: co-IP; whole NT2 cell extract; 800 μg lysate with 2 μg CUL4B antibody 3-4 h at 4 °C, Protein A/G Sepharose beads; normal rabbit IgG as control; western blot with anti-CUL4B and anti-RORγ antibodies. In general terms: In western blotting, separated proteins are transferred to a membrane and probed.

Regarding “retinoic acid-related orphan nuclear receptor gamma (from UniProt P51449 1-518)”, the binding entry is listed as “binds”.
